We go through 1 molecule from patent CN109265548A.

Amino acid sequences for entries named in this document (tags omitted).
UniProt Q9NZQ7: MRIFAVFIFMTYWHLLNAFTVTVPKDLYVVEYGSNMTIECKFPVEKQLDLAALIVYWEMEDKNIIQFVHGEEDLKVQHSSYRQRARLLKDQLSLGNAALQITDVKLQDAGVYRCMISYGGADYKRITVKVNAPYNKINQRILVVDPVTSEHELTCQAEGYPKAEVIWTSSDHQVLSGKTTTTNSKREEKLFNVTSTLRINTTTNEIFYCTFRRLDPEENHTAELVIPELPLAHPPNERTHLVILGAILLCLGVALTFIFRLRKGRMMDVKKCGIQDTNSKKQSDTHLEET

Results are given in words; binding and its absence hold for the method and conditions named. Some binding calls cover weakened binding; strength is not graded here.

In the experiment the target is PD-L1(人) (human) (UniProt Q9NZQ7). The experiment can be described thus: ELISA, antigen coated 0.5 μg per well, nanobody at 10 μg/mL, detection with rabbit anti-HA and HRP goat anti-rabbit. A general note: An ELISA detects its analyte on a solid surface through an enzyme-linked reagent.

B1: 抗PD-L1Nb15 (VHH)
VHH: QVQLVESGGGSVQAGGALRLSCAASGYTSTSNCMGWFRQAPGKEREGVAAIYTGGGSTYYADSVKGRFTISQDNAKNTVYLQMNSLKPEDTAMYYCAAGDLDPAEYSDYDPTVFNYWGQGTLVTVSS
Consider B1, for which the binding result was “binds”.
